{"source": "PubChem BioAssay AID1259405 | NCATS, 2018", "screen": "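Silenced genes that increase secreted GFP made by CHO cells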 (primary screen)", "cell system": "Chinese hamster CHO-K1 ovary cells with stable secreted eGFP expression", "knock-down reagent": "single siRNA against mouse genes, 0.8 pmol siRNA per well (2 µl of 400 nM stock)", "timing": "3 days", "measurement": "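Percent of the per-plate non-targeting control median for intracellular GFP per well by laser scanning cytometry and for cell viability by ATP luminescence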", "direction": "GFP, % of control: higher = more GFP per well, higher productivity; viability (ATP), % of control: higher = more viable cells (more ATP)", "rule for the call": "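a knock-down is called active if GFP reaches 120% or more of non-targeting control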", "note": "This is an unselected part of about 50,000 deposited reagents. About 4,000 of them (8%) were called active. 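Mouse siRNA library applied to hamster cells; one well for each siRNA.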 Reagents against one gene are numbered here."}
The opening 6 entries, to show the layout:
{"gene symbol": "Bmp1", "siRNA no.": 1, "GFP, % of control": 72.4, "viability (ATP), % of control": 63.2, "Call": "inactive"}
{"gene symbol": "Bmp1", "siRNA no.": 2, "GFP, % of control": 89.5, "viability (ATP), % of control": 86.9, "Call": "inactive"}
{"gene symbol": "Bmp1", "siRNA no.": 3, "GFP, % of control": 132, "viability (ATP), % of control": 153, "Call": "active"}
{"gene symbol": "S100a8", "siRNA no.": 1, "GFP, % of control": 71.1, "viability (ATP), % of control": 84.4, "Call": "inactive"}
{"gene symbol": "S100a8", "siRNA no.": 2, "GFP, % of control": 63, "viability (ATP), % of control": 75.4, "Call": "inactive"}
{"gene symbol": "Flt4", "siRNA no.": 1, "GFP, % of control": 73.5, "viability (ATP), % of control": 89.1, "Call": "inactive"}

Main list, from the start:
{"gene symbol": "Bmp1", "siRNA no.": 1, "GFP, % of control": 72.4, "viability (ATP), % of control": 63.2, "Call": "inactive"}
{"gene symbol": "Bmp1", "siRNA no.": 2, "GFP, % of control": 89.5, "viability (ATP), % of control": 86.9, "Call": "inactive"}
{"gene symbol": "Bmp1", "siRNA no.": 3, "GFP, % of control": 132, "viability (ATP), % of control": 153, "Call": "active"}
{"gene symbol": "S100a8", "siRNA no.": 1, "GFP, % of control": 71.1, "viability (ATP), % of control": 84.4, "Call": "inactive"}
{"gene symbol": "S100a8", "siRNA no.": 2, "GFP, % of control": 63, "viability (ATP), % of control": 75.4, "Call": "inactive"}
{"gene symbol": "Flt4", "siRNA no.": 1, "GFP, % of control": 73.5, "viability (ATP), % of control": 89.1, "Call": "inactive"}
{"gene symbol": "Flt4", "siRNA no.": 2, "GFP, % of control": 68, "viability (ATP), % of control": 82.3, "Call": "inactive"}
{"gene symbol": "Flt4", "siRNA no.": 3, "GFP, % of control": 80, "viability (ATP), % of control": 55.9, "Call": "inactive"}
{"gene symbol": "Slamf8", "siRNA no.": 1, "GFP, % of control": 88.3, "viability (ATP), % of control": 51.1, "Call": "inactive"}
{"gene symbol": "Slamf8", "siRNA no.": 2, "GFP, % of control": 117, "viability (ATP), % of control": 77.6, "Call": "inactive"}
{"gene symbol": "Slamf8", "siRNA no.": 3, "GFP, % of control": 70.8, "viability (ATP), % of control": 89.3, "Call": "inactive"}
{"gene symbol": "Lhx1", "siRNA no.": 1, "GFP, % of control": 59.5, "viability (ATP), % of control": 106, "Call": "inactive"}
{"gene symbol": "Lhx1", "siRNA no.": 2, "GFP, % of control": 110, "viability (ATP), % of control": 89, "Call": "inactive"}
{"gene symbol": "Lhx1", "siRNA no.": 3, "GFP, % of control": 59, "viability (ATP), % of control": 80.7, "Call": "inactive"}
{"gene symbol": "Rnase12", "siRNA no.": 1, "GFP, % of control": 86.9, "viability (ATP), % of control": 55.1, "Call": "inactive"}
{"gene symbol": "Rnase12", "siRNA no.": 2, "GFP, % of control": 74.8, "viability (ATP), % of control": 59.8, "Call": "inactive"}
{"gene symbol": "Rnase12", "siRNA no.": 3, "GFP, % of control": 25.5, "viability (ATP), % of control": 37.9, "Call": "inactive"}
{"gene symbol": "Asgr2", "siRNA no.": 1, "GFP, % of control": 100, "viability (ATP), % of control": 64.9, "Call": "inactive"}
{"gene symbol": "Asgr2", "siRNA no.": 2, "GFP, % of control": 34, "viability (ATP), % of control": 34.1, "Call": "inactive"}
{"gene symbol": "Asgr2", "siRNA no.": 3, "GFP, % of control": 112, "viability (ATP), % of control": 94, "Call": "inactive"}
{"gene symbol": "Mthfd1", "siRNA no.": 1, "GFP, % of control": 108, "viability (ATP), % of control": 116, "Call": "inactive"}
{"gene symbol": "Mthfd1", "siRNA no.": 2, "GFP, % of control": 109, "viability (ATP), % of control": 81.9, "Call": "inactive"}
{"gene symbol": "Mthfd1", "siRNA no.": 3, "GFP, % of control": 141, "viability (ATP), % of control": 89.3, "Call": "active"}
{"gene symbol": "Pof1b", "siRNA no.": 1, "GFP, % of control": 71.6, "viability (ATP), % of control": 46, "Call": "inactive"}
{"gene symbol": "Pof1b", "siRNA no.": 2, "GFP, % of control": 81.2, "viability (ATP), % of control": 68.6, "Call": "inactive"}
{"gene symbol": "Pof1b", "siRNA no.": 3, "GFP, % of control": 65, "viability (ATP), % of control": 110, "Call": "inactive"}
{"gene symbol": "Kcnq2", "siRNA no.": 1, "GFP, % of control": 63.7, "viability (ATP), % of control": 32.5, "Call": "inactive"}
{"gene symbol": "Kcnq2", "siRNA no.": 2, "GFP, % of control": 89.6, "viability (ATP), % of control": 58.9, "Call": "inactive"}
{"gene symbol": "Kcnq2", "siRNA no.": 3, "GFP, % of control": 56.4, "viability (ATP), % of control": 73.8, "Call": "inactive"}
{"gene symbol": "Cep162", "siRNA no.": 1, "GFP, % of control": 56.5, "viability (ATP), % of control": 77.2, "Call": "inactive"}
{"gene symbol": "Cep162", "siRNA no.": 2, "GFP, % of control": 58, "viability (ATP), % of control": 61.4, "Call": "inactive"}
{"gene symbol": "Cep162", "siRNA no.": 3, "GFP, % of control": 73.8, "viability (ATP), % of control": 83.6, "Call": "inactive"}
{"gene symbol": "Or7g32", "siRNA no.": 1, "GFP, % of control": 66.9, "viability (ATP), % of control": 45.7, "Call": "inactive"}
{"gene symbol": "Or7g32", "siRNA no.": 2, "GFP, % of control": 103, "viability (ATP), % of control": 58.8, "Call": "inactive"}
{"gene symbol": "Or7g32", "siRNA no.": 3, "GFP, % of control": 102, "viability (ATP), % of control": 100, "Call": "inactive"}
{"gene symbol": "Pknox1", "siRNA no.": 1, "GFP, % of control": 111, "viability (ATP), % of control": 95.7, "Call": "inactive"}
{"gene symbol": "Pknox1", "siRNA no.": 2, "GFP, % of control": 75.5, "viability (ATP), % of control": 98.4, "Call": "inactive"}
{"gene symbol": "Pknox1", "siRNA no.": 3, "GFP, % of control": 76.6, "viability (ATP), % of control": 89.6, "Call": "inactive"}
{"gene symbol": "Fev", "siRNA no.": 1, "GFP, % of control": 46.6, "viability (ATP), % of control": 69.8, "Call": "inactive"}
{"gene symbol": "Fev", "siRNA no.": 2, "GFP, % of control": 67.4, "viability (ATP), % of control": 83.6, "Call": "inactive"}
{"gene symbol": "Fev", "siRNA no.": 3, "GFP, % of control": 56.6, "viability (ATP), % of control": 45.2, "Call": "inactive"}
{"gene symbol": "Ergic2", "siRNA no.": 1, "GFP, % of control": 56.3, "viability (ATP), % of control": 92.1, "Call": "inactive"}
{"gene symbol": "Ergic2", "siRNA no.": 2, "GFP, % of control": 57.4, "viability (ATP), % of control": 72.5, "Call": "inactive"}
{"gene symbol": "Ergic2", "siRNA no.": 3, "GFP, % of control": 90.9, "viability (ATP), % of control": 70.8, "Call": "inactive"}
{"gene symbol": "Speer2", "siRNA no.": 1, "GFP, % of control": 99.3, "viability (ATP), % of control": 75.7, "Call": "inactive"}
{"gene symbol": "Speer2", "siRNA no.": 2, "GFP, % of control": 125, "viability (ATP), % of control": 120, "Call": "active"}
{"gene symbol": "Speer2", "siRNA no.": 3, "GFP, % of control": 113, "viability (ATP), % of control": 113, "Call": "inactive"}
{"gene symbol": "Pkd2l2", "siRNA no.": 1, "GFP, % of control": 165, "viability (ATP), % of control": 86.7, "Call": "active"}
{"gene symbol": "Pkd2l2", "siRNA no.": 2, "GFP, % of control": 79.5, "viability (ATP), % of control": 84.3, "Call": "inactive"}
{"gene symbol": "Pkd2l2", "siRNA no.": 3, "GFP, % of control": 84, "viability (ATP), % of control": 81, "Call": "inactive"}
{"gene symbol": "Stk38l", "siRNA no.": 1, "GFP, % of control": 137, "viability (ATP), % of control": 89.1, "Call": "active"}
{"gene symbol": "Stk38l", "siRNA no.": 2, "GFP, % of control": 86.1, "viability (ATP), % of control": 78.1, "Call": "inactive"}
{"gene symbol": "Stk38l", "siRNA no.": 3, "GFP, % of control": 80.2, "viability (ATP), % of control": 74.1, "Call": "inactive"}
